Data as given in PubChem BioAssay AID1053208 (Peter MacCallum Cancer Centre, 2014).
Assay: 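Find knock-downs that sensitise mouse osteosarcoma cells to doxorubicin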 (primary screen). Cell system: mouse osteosarcoma cells, early-passage culture from an engineered mouse model of fibroblastic bone tumour. Reagents: siRNA pool against mouse genes, 40 nM. Duration: about 120 h (48 h before drug, then 72 h with drug). Treatment: doxorubicin 100 nM for 72 h, roughly 30-40% inhibitory dose. Read-out: 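Viability read as ATP luminescence after 72 h of 100 nM doxorubicin or none, duplicate wells averaged, scaled to non-targeting siRNA, then expressed as robust z-scores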. Direction: viability z-score with doxorubicin: higher = more viable cells under doxorubicin; viability z-score without drug: higher = more viable cells with knock-down alone. Active means: 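Called active if knock-down leaves viability unchanged without drug (z within -2 to 2) but lowers it with doxorubicin (z at or under -2)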.
This is one part, drawn at random, of about 17,000 reagents tested. 788 of all reagents (4.7%) count as active. 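Calls rest on z-score classes alone; an extra cut-off of viability at most 70% of control was not applied to them.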 Reagents against one gene are numbered here. Not all columns of the deposit are shown. No sequences are given here.

Efcab7 (EF-hand calcium binding domain 7) | combined z-score class = no change with or without drug; viability z-score with doxorubicin = 1.24; viability z-score without drug = 0.51; call = inactive
Fan1 (FANCD2/FANCI-associated nuclease 1) | combined z-score class = no change with or without drug; viability z-score with doxorubicin = -0.67; viability z-score without drug = -0.84; call = inactive
Ube2g2 (ubiquitin-conjugating enzyme E2G 2) | combined z-score class = no change with or without drug; viability z-score with doxorubicin = -1.57; viability z-score without drug = -0.17; call = inactive
Clba1 (clathrin binding box of aftiphilin containing 1) | combined z-score class = no change with or without drug; viability z-score with doxorubicin = -1.46; viability z-score without drug = -0.17; call = inactive
Arnt2 (aryl hydrocarbon receptor nuclear translocator 2) | combined z-score class = no change with or without drug; viability z-score with doxorubicin = 0.22; viability z-score without drug = 1.52; call = inactive
Phb2 (prohibitin 2) | combined z-score class = no change with or without drug; viability z-score with doxorubicin = -1.57; viability z-score without drug = -1.85; call = inactive
Kdm6a (lysine (K)-specific demethylase 6A) | combined z-score class = no change with or without drug; viability z-score with doxorubicin = 0.67; viability z-score without drug = 0.34; call = inactive
Rps19bp1 (ribosomal protein S19 binding protein 1) | combined z-score class = no change with or without drug; viability z-score with doxorubicin = 0.22; viability z-score without drug = 1.35; call = inactive
Or8a1b (olfactory receptor family 8 subfamily A member 1B) | combined z-score class = no change with or without drug; viability z-score with doxorubicin = -1.12; viability z-score without drug = -1.18; call = inactive
Tsga13 (testis specific gene A13) | combined z-score class = no change with or without drug; viability z-score with doxorubicin = -0.22; viability z-score without drug = 0; call = inactive
Tnks #1 | combined z-score class = no change with or without drug; viability z-score with doxorubicin = -1.8; viability z-score without drug = -0.17; call = inactive
Tnks #2 | combined z-score class = no change with or without drug; viability z-score with doxorubicin = 0.9; viability z-score without drug = 0.34; call = inactive
Fst (follistatin) | combined z-score class = no change with or without drug; viability z-score with doxorubicin = 0.34; viability z-score without drug = -0.51; call = inactive
5330430C04Rik (RIKEN cDNA 5330430C04 gene) | combined z-score class = no change with or without drug; viability z-score with doxorubicin = -0.22; viability z-score without drug = 1.52; call = inactive
Hdhd5 (haloacid dehalogenase like hydrolase domain containing 5) | combined z-score class = no change with or without drug; viability z-score with doxorubicin = -1.8; viability z-score without drug = 0; call = inactive
Sall1 (spalt like transcription factor 1) | combined z-score class = no change with or without drug; viability z-score with doxorubicin = -0.34; viability z-score without drug = 1.18; call = inactive
Pdgfra (platelet derived growth factor receptor, alpha polypeptide) | combined z-score class = no change with or without drug; viability z-score with doxorubicin = 1.8; viability z-score without drug = 0.84; call = inactive
Pon1 (paraoxonase 1) | combined z-score class = no change with or without drug; viability z-score with doxorubicin = 1.01; viability z-score without drug = 1.18; call = inactive
Ddx18 (DEAD box helicase 18) | combined z-score class = low cell count without drug only; viability z-score with doxorubicin = -0.45; viability z-score without drug = -2.19; call = inactive

Part of the list above, set out differently:
gene symbol	pool no.	combined z-score class	viability z-score with doxorubicin	viability z-score without drug	call
Fan1 (FANCD2/FANCI-associated nuclease 1)	1	no change with or without drug	-0.67	-0.84	inactive
Ube2g2 (ubiquitin-conjugating enzyme E2G 2)	1	no change with or without drug	-1.57	-0.17	inactive
Clba1 (clathrin binding box of aftiphilin containing 1)	1	no change with or without drug	-1.46	-0.17	inactive
